{"source": "paper PMC11742385", "about": "“Selection and Characterization of a DNA Aptamer Recognizing High Mobility Group Box 1 Protein (HMGB1) and Enhancing Its Pro-inflammatory Activity”", "tested_on": "rhHMGB3", "test": "microplate aptamer binding assay", "details": "1 mM Mg2+, 1 mM Ca2+, 5 nM aptamer; SHMCK: 20 mM Hepes, 120 mM NaCl, 5 mM KCl, 1 mM MgCl2, 1 mM CaCl2, pH 7.4, 37 C, 1 h; protein coated 2 pmol/well, 3% BSA block, PBST washes; commercial protein; folded or branched DNA", "note": "For at least one entry, the source does not settle the construct or the ends of the probe. No signal at the amounts used counts as a negative.", "data": [{"sequence": "GGACAAGAATCACCGCTCTGGGTTTGGCGTCGGGCCTGGCGAAAGGTGGTTGTGCGGAGAGAGCGTACAGGAGGCATACAG [H-ap25]", "values": [{"measurement": "binding result", "result": "no binding"}]}]}
